Measurements as given in patent EP0321208A1, “Improvements in or relating to avian control” (priority 1987, dated 1989).
Some entries share one result that the patent states for a list of compounds.

Tested on: quail chymotrypsin
Assay: ATEE assay: inhibition of quail intestinal chymotrypsin activity
Format: biochemical, Japanese quail
Details: compounds listed 1 to 7 in ascending order of inhibition

SMILES: COc1cc(C=CC(=O)O)cc(OC)c1OC [3,4,5-Trimethoxycinnamic acid]
- level of inhibition of chymotrypsin compared with cinnamic acid: more effective than cinnamic acid
